Data published in publication PMC11316749.
No constants are given. Whether binding was seen depends on the method and setting. In cells and extracts the contact can be indirect. Some results given as binding are weak or reduced against the parent protein; the word gives no strength.

Molecular target: GFP-tagged RPL11 (Drosophila) (UniProt P46222)
Assay: co-IP; IP of GFP-tagged RPL11 (Act5C-Gal4>UAS-Rpl11.GFP) from OTUD6.FLAG.HA or OTUD6^C183A.FLAG.HA flies in the presence of cycloheximide, western for HA, RPS7 and GFP

- binding: binds
B1: RPS7 (ubiquitination state not told) (protein, UniProt Q9VA91 1-194)
chain: MAIGSKIIKPGGSDPDDFEKSIAQALVELEANSDLKPYLRDLHITRAREIEFGSKKAVIIYVPIPQQKVFQKIQIILVRELEKKFSGKHVVVIAERKILPKPTRKARNPLKQKRPRSRTLTAVYDAILEDLVFPAEIVGKRIRVKLDGSQLVKVHLDKNQQTTIEHKVDTFTSVYKKLTGRDVTFEFPDNYLNV
